Results are given in words; binding and its absence hold for the method and conditions named. Binding seen in cells or lysates may run through a third protein. Binding calls can cover weak binding; strength is not graded here.
Experiments:
Assay in all cases: co-IP; synaptosomal fractions of adult brains of gephyrin floxed mice injected with the indicated AAVs; immunoprecipitated with an anti-gephyrin antibody, mouse IgG as negative control; immunoblot
[1] = target: EGFP-fused gephyrin A91T (rat), expressed from AAV in mouse dentate gyrus (rat)
[2] = target: EGFP-fused gephyrin G375D (rat), expressed from AAV in mouse dentate gyrus (rat)
[3] = target: EGFP-fused gephyrin WT (rat), expressed from AAV in mouse dentate gyrus (rat)

Measured: binding

B1: IQSEC3 (protein, UniProt Q3TES0 1-1195)
chain: MESLLENPVRAVLYLKELTAIVQNQQSLIHTQRQRIDELERRLDELSAENRSLWEHQQLLQAQPPPGLVPPPPSAPLPAPAVTAPAAAAAQEPLQDHGQLIPASPEPPLQHHGQLLAQPQPAPSSRVQTPQSPHQHPVAPGAIADKEKERPSSCCAAAGALLQHASPAALGKGVLSRRPENETVLHQFCCPAADTEQKPACSDLASQSDGSCAQAGGGMEDSVVAAVAAGRPSAHAPKAQAPELQQEEERPGAVGSPRAGPLRAASPGRQQPALATALCSHTPAASEYELSLDLKNKQIEMLEHKYGGHLVSRRAACTIQTAFRQYQLSKNFEKIRNSLLESRLPRRISLRKVRAPTAESLVAEKALLEGCGLLGLPLGRSPSLPPTFAGSLTELEDSFTEQVQSLAKSIDDALSTWSLKTMCSLQESGAYQLHQALHPSAGQPGLETEAAAREPESGPGSGDEAGGLPQGHSGTLMMAFRDVTVQIANQNISVSSSTALSVANCLGAQTAQATAEPAAAQAEQEDTADQEVSEVPASEQMDPPSEDSEAAESRAQSAQEPAVAQAVVEEAVATEAEEEEEGAKQAGKGAEAEGGDNSEQLSSSSASTKSAKSSSEASAAASKEALQAVILSLPRYHCENPASCRSPTLSTDTLRKRLYRIGLNLFNINPDKGIQFLISRGFIPDTPIGVAHFLLQRKGLSRQMIGEFLGNSKKQFNRDVLDCVVDEMDFSNMELDEALRKFQAHIRVQGEAQKVERLIEAFSQRYCMCNPEVVQQFHNPDTIFILAFAIILLNTDMYSPNIKPDRKMMLEDFIRNLRGVDDGADIPRELVVGIYERIQQKELKSNEDHVTYVTKVEKSIVGMKTVLSMPHRRLVCCSRLFEVTDVNKLQKQAAHQREVFLFNDLLVILKLCPKKKSSFTYTFCKAVGLLGMRFHLFENEYYSHGITLATPLSGSEKKQVLHFCALGSDEMQKFVEDLKESIAEVTELEQIRIEWELEKQQGTKTLSVRSAGAQGDPQSKQGSPTAKREAMAGEKAAESSGEVSIHNRLQTSQHSPKLGVERGAPAPSPPTSPPPLPPDPQPSPLREQPPPLPLPPPTPPGTLVQCQQIVKVIVLDKPCLARMEPLLSQALSCYASSSSDSCGSTPLRGPGSPVKVIHQPPLPPPPPPYNHPHQFCPPGSMLLRRRYSSGSRSLV
binds: [1] | [2] | [3]

B2: collybistin (protein, UniProt Q3UTH8 1-516)
chain: MYDLITGDSIVSAEAVWDHVTMANRELAFKAGDVIKVLDASNKDWWWGQIDDEEGWFPASFVRLWVNQEDGVEEGPSDVQNGHLDPNSDCLCLGRPLQNRDQMRANVINEIMSTERHYIKHLKDICEGYLKQCRKRRDMFSDEQLKVIFGNIEDIYRFQMGFVRDLEKQYNNDDPHLSEIGPCFLEHQDGFWIYSEYCNNHLDACMELSKLMKDSRYQHFFEACRLLQQMIDIAIDGFLLTPVQKICKYPLQLAELLKYTAQDHSDYRYVAAALAVMRNVTQQINERKRRLENIDKIAQWQASVLDWEGEDILDRSSELIYTGEMAWIYQPYGRNQQRVFFLFDHQMVLCKKDLIRRDILYYKGRIDMDKYEVIDIEDGRDDDFNVSMKNAFKLHNKETEEVHLFFAKKLEEKIRWLRAFREERKMVQEDEKIGFEISENQKRQAAMTVRKASKQKGVNSARSVPPSYPPPQDPLNQGQYLVPDGIAQSQVFEFTEPKRSQSPFWQNFSRLTPFKK
binds: [1] | [2] | [3]
